PubChem BioAssay AID652259 – Drosophila RNAi Screening Center, 2013

Assay: 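Genome-wide hunt for genes that control Wingless pathway activity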 (primary screen)
Cell system: Drosophila clone 8 imaginal disc epithelial cells
Reagent: long dsRNA against Drosophila genes
Conditions: pathway stimulated by co-transfected Wingless expression plasmid
Measurement: 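Firefly luciferase from a tcf-site Wingless reporter, measured alongside co-transfected Renilla luciferase that tracks transfection; pathway stimulated by a Wingless plasmid; the firefly-to-Renilla ratio is not deposited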
Scale: firefly reporter light: higher = more Wg reporter light, before normalisation; Renilla control light: higher = more transfected or surviving cells
Rule for the call: 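Strong candidates differ from their plate mean by at least two out of four per-plate statistical tests; weak candidates meet just one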
Calls: active = candidate regulator (raises or lowers reporter); inactive = not a candidate
The screen tested about 22,000 reagents; shown is a random part of those that have a named target and a result. In the full data, 233 (1.1%) got an active call. 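Light values are raw, unnormalised plate reads; the ratio scores behind the reporter calls were not deposited.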 Entries without a mark were called inactive. The numbers tell different reagents against one gene apart. A plus sign joins genes that one reagent is predicted to hit. No sequences are given here. Not given: the amount of reagent, the time to read-out, the dose of the treatment.

no.	target	dsRNA no.	reporter change call, replicate 1	firefly reporter light, replicate 1	firefly reporter light, replicate 2	Renilla control light, replicate 1	Renilla control light, replicate 2
1	CG12645	1		24848		9224	
2	chas	1		13654		5637	
3	chas	2		14336		7642	
4	SLC22A	1		12600		3152	
5	SLC22A	2		15733		4036	
6	CG34425	1		18450		5876	
7	CG34425	2		6.68e5	5.95e5	2.72e5	2.56e5
8	Ddx1	1		4919		2307	
9	CG8272	1		12624		3780	
10	CG18473	1		14202		3322	
11	CG17562	1		13461		4136	
12	mRpL21	1		9992		3787	
13	Smox	1		25281		9672	
14	CG6345	1		15168		2971	
15	inv	1		9354		3488	
16	Idua	1		6219		2698	
17	Lcp65Ac	1		1161	9188	1227	3660
18	CG16704	1		2252	8187	1034	3148
19	shakB	1		5520		2541	
20	shakB	2		3888	8.20e5	2131	4.02e5
21	shakB	3		24322		12711	
22	shakB	4		19687		7483	
23	shakB	5		3.95e5	3.87e5	1.69e5	1.42e5
24	shakB	6		4.57e5	5.55e5	2.22e5	2.62e5
25	Dp1	1		15323		4936	
26	CG15930	1		18640		11498	
27	swi2	1		4475		2364	
28	Gr93b	1		7.83e5	4.24e5	2.45e5	2.19e5
29	Evi5	1		16896		7608	
30	ssp7	1		2289		337	
31	Drep2	1		8684		2403	
32	CkIIbeta2	1		5386		2099	
33	CG17190	1		16028		3452	
34	RPA1	1		4434		1600	
35	bdl	1		10674		5728	
36	Yod1	1		11780		4168	
37	CG14177 (retired record)	1		10355	7.61e5	4577	3.46e5
38	hbt + CG43779	1		3024	7856	829	2496
39	CG13097	1		7562		2512	
40	Fum1	1		2829	8951	914	3483
41	Mst57Da	1		26268		18417	
42	asl	1		6242		2993	
43	mus201 + Chrac-14	1		2712	8754	651	2877
44	mus201 + Chrac-14	2		1632	6184	384	2450
45	abo	1		2342	3888	897	2823
46	CG10747	1		2250	8320	736	2583
47	CG42780	1		2400		781	
48	vig2	1		2704	6688	1133	1704
49	cher	1		3099	6301	1176	1962
50	Tango9	1		8755		2869	
51	oaf	1		3776	5819	1234	1930
52	CG17230	1		11356		4496	
53	CG43288	1		3109		1430	
54	dod	1		25931		13716	
55	CG31674	1		1962	9610	890	4368
56	CG9286	1		7687		1381	
57	CG4318	1		19904		10211	
58	Nep7	1		5351		2067	
59	CG11656	1		8096		2395	
60	ytr	1		20546		6538	
61	ytr	2		5.75e5	5.98e5	2.04e5	2.32e5
62	ATPsynCF6	1		19959		13700	
63	CG32152	1		7.41e5	7.23e5	3.02e5	2.79e5
64	MtnB	1		7.28e5	7.89e5	3.63e5	93193
65	CG2113	1		5893		2521	
66	mlt (retired record)	1		8804		3337	
67	CG34007	1		21917		10192	
68	CG8191 + CG12379	1		24672		13797	
69	CG8833	1		4385		1563	
70	Nf-YA	1	Wg reporter activity raised (active)	7094		884	
71	Hmgcr	1		20117		11986	
72	Stim	1		2354	5664	704	2275
73	Ir60e	1		1467	6059	609	1990
